Measured values taken from the supplement of paper PMC12823440, “Inhibitors supercharge kinase turnover through native proteolytic circuits” (Nature, 2025).
Structures can show the parent of a compound that is named as a salt. The list shows a part of the results. The calls rarely recur for the same compound in another form.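 In K562 cells expressing nanoluciferase-fused kinases, luminescence was recorded at 4 h intervals between 2 and 18 h, normalized as percent of control with DMSO at 100% and a positive control at 0%. A significant (2 sigma) signal drop marks a time point as decreased. The authors' rule for a hit is not shown and takes in more than the number of time points.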

Chains of the proteins cited; added tags and fusions are not shown. Lines headed by an entry give the natural chain unless they say otherwise; changes in a name come on top.
UniProt O75460: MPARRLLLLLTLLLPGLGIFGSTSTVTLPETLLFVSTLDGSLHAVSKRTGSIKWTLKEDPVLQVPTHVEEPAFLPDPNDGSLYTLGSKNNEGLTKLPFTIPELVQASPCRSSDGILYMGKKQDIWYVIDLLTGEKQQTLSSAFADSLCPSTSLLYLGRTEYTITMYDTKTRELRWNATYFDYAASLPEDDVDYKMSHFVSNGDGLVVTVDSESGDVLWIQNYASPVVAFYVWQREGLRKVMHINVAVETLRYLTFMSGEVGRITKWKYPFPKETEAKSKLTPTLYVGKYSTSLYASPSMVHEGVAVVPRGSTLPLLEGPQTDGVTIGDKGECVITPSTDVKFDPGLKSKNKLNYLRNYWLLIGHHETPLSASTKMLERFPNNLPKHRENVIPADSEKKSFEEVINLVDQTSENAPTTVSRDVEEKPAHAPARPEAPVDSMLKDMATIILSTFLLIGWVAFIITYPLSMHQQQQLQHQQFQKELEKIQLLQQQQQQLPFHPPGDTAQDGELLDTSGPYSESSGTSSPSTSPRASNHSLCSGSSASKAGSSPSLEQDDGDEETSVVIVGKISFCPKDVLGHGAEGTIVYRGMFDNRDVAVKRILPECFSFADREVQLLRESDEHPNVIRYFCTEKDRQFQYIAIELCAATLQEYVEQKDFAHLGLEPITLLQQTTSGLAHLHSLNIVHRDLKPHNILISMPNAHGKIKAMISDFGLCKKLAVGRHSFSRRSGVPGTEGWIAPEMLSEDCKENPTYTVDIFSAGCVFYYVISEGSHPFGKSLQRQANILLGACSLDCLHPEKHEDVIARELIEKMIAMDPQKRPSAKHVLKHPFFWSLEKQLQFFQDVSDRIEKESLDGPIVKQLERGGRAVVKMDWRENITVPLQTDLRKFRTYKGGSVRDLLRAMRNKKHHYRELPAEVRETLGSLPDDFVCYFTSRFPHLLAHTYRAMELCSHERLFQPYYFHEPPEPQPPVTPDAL
UniProt P21802, whole entry, looked up: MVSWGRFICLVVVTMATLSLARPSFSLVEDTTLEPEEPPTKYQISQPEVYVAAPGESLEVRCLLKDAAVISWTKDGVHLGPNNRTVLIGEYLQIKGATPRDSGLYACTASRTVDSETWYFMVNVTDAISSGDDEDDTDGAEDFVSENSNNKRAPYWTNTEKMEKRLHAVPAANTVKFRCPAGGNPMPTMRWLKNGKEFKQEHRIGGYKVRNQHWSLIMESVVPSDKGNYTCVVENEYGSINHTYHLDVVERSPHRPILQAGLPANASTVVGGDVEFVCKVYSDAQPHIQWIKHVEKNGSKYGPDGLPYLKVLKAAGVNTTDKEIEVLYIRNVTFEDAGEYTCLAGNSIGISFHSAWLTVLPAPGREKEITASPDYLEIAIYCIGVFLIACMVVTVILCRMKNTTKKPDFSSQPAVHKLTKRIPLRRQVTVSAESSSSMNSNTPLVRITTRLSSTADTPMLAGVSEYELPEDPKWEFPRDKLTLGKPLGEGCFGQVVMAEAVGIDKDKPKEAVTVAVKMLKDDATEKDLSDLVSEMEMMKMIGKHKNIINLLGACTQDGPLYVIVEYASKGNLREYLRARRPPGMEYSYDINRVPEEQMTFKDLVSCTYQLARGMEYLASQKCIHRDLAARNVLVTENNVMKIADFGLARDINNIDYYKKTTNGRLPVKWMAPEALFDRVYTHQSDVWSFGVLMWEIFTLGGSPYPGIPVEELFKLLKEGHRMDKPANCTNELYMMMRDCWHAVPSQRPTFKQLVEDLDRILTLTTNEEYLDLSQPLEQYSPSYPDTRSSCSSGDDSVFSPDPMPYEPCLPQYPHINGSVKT
UniProt P36888, whole entry: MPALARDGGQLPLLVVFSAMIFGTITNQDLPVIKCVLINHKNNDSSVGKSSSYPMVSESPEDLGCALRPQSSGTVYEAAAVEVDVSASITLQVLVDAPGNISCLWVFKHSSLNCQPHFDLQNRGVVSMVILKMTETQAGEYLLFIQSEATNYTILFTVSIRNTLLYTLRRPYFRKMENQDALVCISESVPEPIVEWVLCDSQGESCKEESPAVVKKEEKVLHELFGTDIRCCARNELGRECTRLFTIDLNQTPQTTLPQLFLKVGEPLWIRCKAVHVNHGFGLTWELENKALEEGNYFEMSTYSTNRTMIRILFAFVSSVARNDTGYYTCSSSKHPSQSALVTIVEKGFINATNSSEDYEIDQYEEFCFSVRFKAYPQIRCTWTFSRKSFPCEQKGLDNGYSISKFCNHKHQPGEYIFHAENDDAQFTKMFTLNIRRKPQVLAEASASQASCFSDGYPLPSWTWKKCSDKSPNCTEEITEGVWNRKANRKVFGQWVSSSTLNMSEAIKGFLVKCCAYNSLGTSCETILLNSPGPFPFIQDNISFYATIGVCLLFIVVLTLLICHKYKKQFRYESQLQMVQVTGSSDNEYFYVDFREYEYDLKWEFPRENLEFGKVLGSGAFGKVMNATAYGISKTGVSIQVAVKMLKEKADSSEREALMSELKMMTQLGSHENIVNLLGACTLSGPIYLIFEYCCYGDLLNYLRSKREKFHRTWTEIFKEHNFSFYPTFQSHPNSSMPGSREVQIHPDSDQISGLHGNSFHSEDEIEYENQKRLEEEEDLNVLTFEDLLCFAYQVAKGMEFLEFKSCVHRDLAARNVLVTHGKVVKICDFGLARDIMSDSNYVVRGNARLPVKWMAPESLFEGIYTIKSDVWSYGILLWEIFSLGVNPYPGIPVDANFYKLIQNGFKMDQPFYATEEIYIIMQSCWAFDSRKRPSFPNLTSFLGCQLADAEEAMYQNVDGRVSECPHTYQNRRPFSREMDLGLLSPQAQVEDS
UniProt P06241, whole entry, looked up: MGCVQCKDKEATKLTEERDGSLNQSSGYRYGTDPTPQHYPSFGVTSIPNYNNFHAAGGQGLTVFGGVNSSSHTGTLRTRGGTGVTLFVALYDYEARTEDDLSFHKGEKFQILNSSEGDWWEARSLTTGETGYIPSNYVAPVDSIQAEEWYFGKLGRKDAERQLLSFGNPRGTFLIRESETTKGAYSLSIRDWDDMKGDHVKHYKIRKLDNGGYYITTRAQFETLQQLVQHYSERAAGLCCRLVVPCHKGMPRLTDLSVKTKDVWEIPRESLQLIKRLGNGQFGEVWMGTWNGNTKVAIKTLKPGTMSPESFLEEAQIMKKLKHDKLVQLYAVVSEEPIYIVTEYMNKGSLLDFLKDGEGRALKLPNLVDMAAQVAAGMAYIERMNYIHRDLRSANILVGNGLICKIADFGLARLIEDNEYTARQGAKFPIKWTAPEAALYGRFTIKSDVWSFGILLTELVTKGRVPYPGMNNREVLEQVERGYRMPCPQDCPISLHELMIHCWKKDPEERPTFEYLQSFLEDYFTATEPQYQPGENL
UniProt P49840: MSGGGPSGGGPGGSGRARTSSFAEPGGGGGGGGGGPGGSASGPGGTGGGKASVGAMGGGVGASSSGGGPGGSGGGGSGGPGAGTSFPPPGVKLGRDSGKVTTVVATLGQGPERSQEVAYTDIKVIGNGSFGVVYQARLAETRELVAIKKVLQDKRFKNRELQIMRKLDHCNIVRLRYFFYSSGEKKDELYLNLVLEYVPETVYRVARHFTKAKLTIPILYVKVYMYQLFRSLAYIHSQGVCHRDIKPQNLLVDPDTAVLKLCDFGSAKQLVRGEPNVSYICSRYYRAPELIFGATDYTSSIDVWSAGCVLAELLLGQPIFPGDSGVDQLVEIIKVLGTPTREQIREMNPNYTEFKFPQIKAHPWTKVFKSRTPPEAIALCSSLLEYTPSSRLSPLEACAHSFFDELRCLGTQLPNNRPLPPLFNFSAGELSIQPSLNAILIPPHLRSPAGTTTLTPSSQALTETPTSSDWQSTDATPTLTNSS
UniProt P14616: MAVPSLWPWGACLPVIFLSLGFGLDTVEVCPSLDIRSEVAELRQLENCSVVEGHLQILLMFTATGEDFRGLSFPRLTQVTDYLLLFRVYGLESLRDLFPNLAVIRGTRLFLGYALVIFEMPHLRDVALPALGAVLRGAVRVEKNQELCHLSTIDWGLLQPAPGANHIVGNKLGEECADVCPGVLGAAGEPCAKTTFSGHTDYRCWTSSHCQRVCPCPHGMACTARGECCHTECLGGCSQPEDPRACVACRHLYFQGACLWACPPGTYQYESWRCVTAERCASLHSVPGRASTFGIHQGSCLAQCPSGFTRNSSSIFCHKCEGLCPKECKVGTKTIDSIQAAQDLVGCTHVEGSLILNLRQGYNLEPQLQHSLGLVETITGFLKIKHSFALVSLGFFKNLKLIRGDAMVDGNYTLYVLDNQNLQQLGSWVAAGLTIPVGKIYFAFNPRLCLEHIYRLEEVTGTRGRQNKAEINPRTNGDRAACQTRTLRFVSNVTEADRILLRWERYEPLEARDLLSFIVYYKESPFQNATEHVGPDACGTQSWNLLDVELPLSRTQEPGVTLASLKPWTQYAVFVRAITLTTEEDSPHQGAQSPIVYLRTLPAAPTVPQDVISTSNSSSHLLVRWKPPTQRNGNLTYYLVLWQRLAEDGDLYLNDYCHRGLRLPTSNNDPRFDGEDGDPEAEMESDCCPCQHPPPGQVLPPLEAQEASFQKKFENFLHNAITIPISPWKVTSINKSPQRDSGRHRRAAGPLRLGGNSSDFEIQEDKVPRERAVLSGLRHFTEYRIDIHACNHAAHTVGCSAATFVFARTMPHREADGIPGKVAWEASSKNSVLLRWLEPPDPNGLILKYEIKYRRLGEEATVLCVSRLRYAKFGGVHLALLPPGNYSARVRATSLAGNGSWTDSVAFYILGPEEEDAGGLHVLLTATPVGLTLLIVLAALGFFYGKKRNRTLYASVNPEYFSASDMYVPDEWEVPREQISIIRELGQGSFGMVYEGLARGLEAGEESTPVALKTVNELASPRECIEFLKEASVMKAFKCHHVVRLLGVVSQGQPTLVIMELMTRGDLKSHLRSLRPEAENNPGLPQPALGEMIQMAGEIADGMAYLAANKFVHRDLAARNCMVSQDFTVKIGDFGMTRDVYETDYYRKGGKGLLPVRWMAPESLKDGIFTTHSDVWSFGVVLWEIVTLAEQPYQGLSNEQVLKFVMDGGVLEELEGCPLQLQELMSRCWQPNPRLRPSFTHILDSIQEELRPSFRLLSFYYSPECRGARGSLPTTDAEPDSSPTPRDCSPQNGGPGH
UniProt Q9Y616: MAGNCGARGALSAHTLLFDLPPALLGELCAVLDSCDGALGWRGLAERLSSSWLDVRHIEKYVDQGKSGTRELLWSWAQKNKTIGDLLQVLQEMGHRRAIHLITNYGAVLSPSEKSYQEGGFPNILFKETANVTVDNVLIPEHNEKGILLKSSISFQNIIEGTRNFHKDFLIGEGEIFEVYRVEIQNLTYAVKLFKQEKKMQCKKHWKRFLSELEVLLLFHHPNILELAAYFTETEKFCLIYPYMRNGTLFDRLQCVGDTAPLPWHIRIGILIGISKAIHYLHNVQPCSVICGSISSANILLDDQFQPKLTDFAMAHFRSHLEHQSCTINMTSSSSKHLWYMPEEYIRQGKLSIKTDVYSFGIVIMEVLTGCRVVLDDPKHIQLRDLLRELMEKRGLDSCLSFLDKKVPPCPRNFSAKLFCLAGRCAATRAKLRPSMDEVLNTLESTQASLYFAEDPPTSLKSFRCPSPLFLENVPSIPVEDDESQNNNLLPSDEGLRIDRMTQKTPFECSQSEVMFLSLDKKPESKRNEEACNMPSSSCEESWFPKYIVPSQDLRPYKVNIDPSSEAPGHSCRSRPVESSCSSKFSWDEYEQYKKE
UniProt Q12851: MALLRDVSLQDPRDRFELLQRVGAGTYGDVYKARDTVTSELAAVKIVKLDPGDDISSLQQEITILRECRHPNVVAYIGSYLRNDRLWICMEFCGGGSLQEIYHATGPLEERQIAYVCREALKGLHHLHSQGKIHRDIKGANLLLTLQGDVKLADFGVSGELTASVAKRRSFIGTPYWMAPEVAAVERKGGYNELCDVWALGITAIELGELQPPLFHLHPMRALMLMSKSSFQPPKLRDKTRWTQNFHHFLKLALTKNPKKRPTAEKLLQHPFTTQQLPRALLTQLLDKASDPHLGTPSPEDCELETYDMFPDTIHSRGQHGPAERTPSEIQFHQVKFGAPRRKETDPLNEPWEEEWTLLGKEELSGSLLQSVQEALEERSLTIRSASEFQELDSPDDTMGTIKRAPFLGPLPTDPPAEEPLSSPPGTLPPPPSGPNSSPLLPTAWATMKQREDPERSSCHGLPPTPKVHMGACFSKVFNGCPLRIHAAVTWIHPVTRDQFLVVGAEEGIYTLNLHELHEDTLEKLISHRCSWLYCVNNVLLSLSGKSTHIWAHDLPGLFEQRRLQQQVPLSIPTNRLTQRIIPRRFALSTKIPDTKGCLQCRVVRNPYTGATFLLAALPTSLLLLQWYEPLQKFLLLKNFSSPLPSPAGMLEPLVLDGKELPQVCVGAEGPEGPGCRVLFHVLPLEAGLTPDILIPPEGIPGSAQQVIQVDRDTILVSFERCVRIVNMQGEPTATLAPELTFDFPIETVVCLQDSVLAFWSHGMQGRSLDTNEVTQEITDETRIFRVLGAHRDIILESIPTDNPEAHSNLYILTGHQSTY

Legend:
Assay in all cases: kinase-Nluc reporter destabilization hit call (1 = scored as downregulated) (binary); higher = compound decreases kinase abundance
Conditions in all cases: K562, 2-18 h
ERN1 = ERN1 (UniProt O75460)
FGFR1 = FGFR1 (UniProt P11362)
FGFR2 = FGFR2 (UniProt P21802)
FGFR3 = FGFR3 (UniProt P22607)
FGR = FGR (UniProt P09769)
FLT3 = FLT3 (UniProt P36888)
FYN = FYN (UniProt P06241)
GSK3A = GSK3A (UniProt P49840)
HER2 = HER2 (UniProt P04626)
INSRR = INSRR (UniProt P14616)
IRAK3 = IRAK3 (UniProt Q9Y616)
JAK1 = JAK1 (UniProt P23458)
LIMK1 = LIMK1 (UniProt P53667)
LIMK2 = LIMK2 (UniProt P53671)
LMTK2 = LMTK2 (UniProt Q8IWU2)
LYN = LYN (UniProt P07948)
MAP2K1 = MAP2K1 (UniProt Q02750)
MAP2K2 = MAP2K2 (UniProt P36507)
MAP4K2 = MAP4K2 (UniProt Q12851)
LCK = LCK (UniProt P06239)

Structure (SMILES): C#Cc1cccc(Nc2ncnc3cc(OCCOC)c(OCCOC)cc23)c1 [Erlotinib]
- kinase-Nluc reporter destabilization hit call (ERN1; 10 µM): inactive: 0
- kinase-Nluc reporter destabilization hit call (FGFR1; 10 µM): inactive: 0
- kinase-Nluc reporter destabilization hit call (FGFR2; 10 µM): inactive: 0
- kinase-Nluc reporter destabilization hit call (FGFR3; 10 µM): inactive: 0
- kinase-Nluc reporter destabilization hit call (FGR; 10 µM): inactive: 0
- kinase-Nluc reporter destabilization hit call (FLT3; 10 µM): inactive: 0
- kinase-Nluc reporter destabilization hit call (FYN; 10 µM): inactive: 0
- kinase-Nluc reporter destabilization hit call (GSK3A; 10 µM): inactive: 0
- kinase-Nluc reporter destabilization hit call (HER2; 10 µM): inactive: 0
- kinase-Nluc reporter destabilization hit call (INSRR; 10 µM): inactive: 0
- kinase-Nluc reporter destabilization hit call (IRAK3; 10 µM): inactive: 0
- kinase-Nluc reporter destabilization hit call (JAK1; 10 µM): inactive: 0
- kinase-Nluc reporter destabilization hit call (LIMK1; 10 µM): inactive: 0
- kinase-Nluc reporter destabilization hit call (LIMK2; 10 µM): inactive: 0
- kinase-Nluc reporter destabilization hit call (LMTK2; 10 µM): inactive: 0
- kinase-Nluc reporter destabilization hit call (LYN; 10 µM): inactive: 0
- kinase-Nluc reporter destabilization hit call (MAP2K1; 10 µM): inactive: 0
- kinase-Nluc reporter destabilization hit call (MAP2K2; 10 µM): inactive: 0
- kinase-Nluc reporter destabilization hit call (MAP4K2; 10 µM): inactive: 0

Structure (SMILES): C/C=C1\C(=O)C[C@H]2[C@@H]3CCC4=CC(=O)CC[C@]4(C)[C@H]3CC[C@]12C [(Z)-Guggulsterone]
- kinase-Nluc reporter destabilization hit call (ERN1; 10 µM): inactive: 0
- kinase-Nluc reporter destabilization hit call (FGFR1; 10 µM): inactive: 0
- kinase-Nluc reporter destabilization hit call (FGFR2; 10 µM): inactive: 0
- kinase-Nluc reporter destabilization hit call (FGR; 10 µM): inactive: 0
- kinase-Nluc reporter destabilization hit call (FLT3; 10 µM): inactive: 0
- kinase-Nluc reporter destabilization hit call (FYN; 10 µM): inactive: 0
- kinase-Nluc reporter destabilization hit call (GSK3A; 10 µM): inactive: 0
- kinase-Nluc reporter destabilization hit call (HER2; 10 µM): inactive: 0
- kinase-Nluc reporter destabilization hit call (INSRR; 10 µM): inactive: 0
- kinase-Nluc reporter destabilization hit call (IRAK3; 10 µM): inactive: 0
- kinase-Nluc reporter destabilization hit call (JAK1; 10 µM): inactive: 0
- kinase-Nluc reporter destabilization hit call (LCK; 10 µM): inactive: 0
- kinase-Nluc reporter destabilization hit call (LIMK1; 10 µM): inactive: 0
- kinase-Nluc reporter destabilization hit call (LIMK2; 10 µM): inactive: 0
- kinase-Nluc reporter destabilization hit call (LMTK2; 10 µM): inactive: 0
- kinase-Nluc reporter destabilization hit call (LYN; 10 µM): inactive: 0
- kinase-Nluc reporter destabilization hit call (MAP2K1; 10 µM): inactive: 0
- kinase-Nluc reporter destabilization hit call (MAP2K2; 10 µM): inactive: 0
- kinase-Nluc reporter destabilization hit call (MAP4K2; 10 µM): inactive: 0

Structure (SMILES): C#Cc1cccc(Nc2ncnc3cc(OCCOC)c(OCCOC)cc23)c1 [Erlotinib (Hydrochloride)]
- kinase-Nluc reporter destabilization hit call (ERN1; 10 µM): inactive: 0
- kinase-Nluc reporter destabilization hit call (FGFR1; 10 µM): inactive: 0
- kinase-Nluc reporter destabilization hit call (FGFR2; 10 µM): active: 1
- kinase-Nluc reporter destabilization hit call (FGFR3; 10 µM): inactive: 0
- kinase-Nluc reporter destabilization hit call (FGR; 10 µM): inactive: 0
- kinase-Nluc reporter destabilization hit call (FLT3; 10 µM): inactive: 0
- kinase-Nluc reporter destabilization hit call (FYN; 10 µM): inactive: 0
- kinase-Nluc reporter destabilization hit call (GSK3A; 10 µM): inactive: 0
- kinase-Nluc reporter destabilization hit call (HER2; 10 µM): inactive: 0
- kinase-Nluc reporter destabilization hit call (INSRR; 10 µM): inactive: 0
- kinase-Nluc reporter destabilization hit call (IRAK3; 10 µM): inactive: 0
- kinase-Nluc reporter destabilization hit call (JAK1; 10 µM): inactive: 0
- kinase-Nluc reporter destabilization hit call (LIMK1; 10 µM): inactive: 0
- kinase-Nluc reporter destabilization hit call (LIMK2; 10 µM): inactive: 0
- kinase-Nluc reporter destabilization hit call (LMTK2; 10 µM): inactive: 0
- kinase-Nluc reporter destabilization hit call (LYN; 10 µM): inactive: 0
- kinase-Nluc reporter destabilization hit call (MAP2K1; 10 µM): inactive: 0
- kinase-Nluc reporter destabilization hit call (MAP2K2; 10 µM): inactive: 0
- kinase-Nluc reporter destabilization hit call (MAP4K2; 10 µM): inactive: 0

Structure (SMILES): COc1cc2c(Oc3ccc4[nH]c(C)cc4c3F)ncnc2cc1OCCCN1CCCC1 [Cediranib]
- kinase-Nluc reporter destabilization hit call (ERN1; 2.5 µM): inactive: 0
- kinase-Nluc reporter destabilization hit call (FGFR1; 2.5 µM): inactive: 0
- kinase-Nluc reporter destabilization hit call (FGFR2; 2.5 µM): inactive: 0
- kinase-Nluc reporter destabilization hit call (FGFR3; 2.5 µM): inactive: 0
- kinase-Nluc reporter destabilization hit call (FGR; 2.5 µM): inactive: 0
- kinase-Nluc reporter destabilization hit call (FLT3; 2.5 µM): inactive: 0
- kinase-Nluc reporter destabilization hit call (FYN; 2.5 µM): inactive: 0
- kinase-Nluc reporter destabilization hit call (GSK3A; 2.5 µM): inactive: 0
- kinase-Nluc reporter destabilization hit call (HER2; 2.5 µM): inactive: 0
- kinase-Nluc reporter destabilization hit call (INSRR; 2.5 µM): inactive: 0
- kinase-Nluc reporter destabilization hit call (IRAK3; 2.5 µM): inactive: 0
- kinase-Nluc reporter destabilization hit call (JAK1; 2.5 µM): inactive: 0
- kinase-Nluc reporter destabilization hit call (LCK; 2.5 µM): inactive: 0
- kinase-Nluc reporter destabilization hit call (LIMK1; 2.5 µM): inactive: 0
- kinase-Nluc reporter destabilization hit call (LIMK2; 2.5 µM): inactive: 0
- kinase-Nluc reporter destabilization hit call (LMTK2; 2.5 µM): inactive: 0
- kinase-Nluc reporter destabilization hit call (LYN; 2.5 µM): inactive: 0
- kinase-Nluc reporter destabilization hit call (MAP2K1; 2.5 µM): inactive: 0
- kinase-Nluc reporter destabilization hit call (MAP2K2; 2.5 µM): inactive: 0
- kinase-Nluc reporter destabilization hit call (MAP4K2; 2.5 µM): inactive: 0

Structure (SMILES): N=C(N)NC(=O)c1nc(Cl)c(N)nc1N [Amiloride hydrochloride dihydrate]
- kinase-Nluc reporter destabilization hit call (ERN1; 10 µM): inactive: 0
- kinase-Nluc reporter destabilization hit call (FGFR1; 10 µM): inactive: 0
- kinase-Nluc reporter destabilization hit call (FGFR2; 10 µM): inactive: 0
- kinase-Nluc reporter destabilization hit call (FGFR3; 10 µM): inactive: 0
- kinase-Nluc reporter destabilization hit call (FGR; 10 µM): inactive: 0
- kinase-Nluc reporter destabilization hit call (FLT3; 10 µM): inactive: 0
- kinase-Nluc reporter destabilization hit call (FYN; 10 µM): inactive: 0
- kinase-Nluc reporter destabilization hit call (GSK3A; 10 µM): inactive: 0
- kinase-Nluc reporter destabilization hit call (HER2; 10 µM): inactive: 0
- kinase-Nluc reporter destabilization hit call (INSRR; 10 µM): inactive: 0
- kinase-Nluc reporter destabilization hit call (IRAK3; 10 µM): inactive: 0
- kinase-Nluc reporter destabilization hit call (JAK1; 10 µM): inactive: 0
- kinase-Nluc reporter destabilization hit call (LCK; 10 µM): inactive: 0
- kinase-Nluc reporter destabilization hit call (LIMK1; 10 µM): inactive: 0
- kinase-Nluc reporter destabilization hit call (LIMK2; 10 µM): inactive: 0
- kinase-Nluc reporter destabilization hit call (LMTK2; 10 µM): inactive: 0
- kinase-Nluc reporter destabilization hit call (LYN; 10 µM): inactive: 0
- kinase-Nluc reporter destabilization hit call (MAP2K1; 10 µM): inactive: 0
- kinase-Nluc reporter destabilization hit call (MAP2K2; 10 µM): inactive: 0
- kinase-Nluc reporter destabilization hit call (MAP4K2; 10 µM): inactive: 0

Structure (SMILES): O=C1Nc2ccccc2/C1=C/c1ccccn1 [GSK-3β inhibitor 1]
- kinase-Nluc reporter destabilization hit call (ERN1; 10 µM): inactive: 0
- kinase-Nluc reporter destabilization hit call (FGFR1; 10 µM): inactive: 0
- kinase-Nluc reporter destabilization hit call (FGFR2; 10 µM): inactive: 0
- kinase-Nluc reporter destabilization hit call (FGFR3; 10 µM): inactive: 0
- kinase-Nluc reporter destabilization hit call (FGR; 10 µM): inactive: 0
- kinase-Nluc reporter destabilization hit call (FLT3; 10 µM): inactive: 0
- kinase-Nluc reporter destabilization hit call (FYN; 10 µM): inactive: 0
- kinase-Nluc reporter destabilization hit call (GSK3A; 10 µM): inactive: 0
- kinase-Nluc reporter destabilization hit call (HER2; 10 µM): inactive: 0
- kinase-Nluc reporter destabilization hit call (INSRR; 10 µM): inactive: 0
- kinase-Nluc reporter destabilization hit call (IRAK3; 10 µM): inactive: 0
- kinase-Nluc reporter destabilization hit call (JAK1; 10 µM): inactive: 0
- kinase-Nluc reporter destabilization hit call (LCK; 10 µM): inactive: 0
- kinase-Nluc reporter destabilization hit call (LIMK1; 10 µM): inactive: 0
- kinase-Nluc reporter destabilization hit call (LIMK2; 10 µM): inactive: 0
- kinase-Nluc reporter destabilization hit call (LMTK2; 10 µM): inactive: 0
- kinase-Nluc reporter destabilization hit call (LYN; 10 µM): inactive: 0
- kinase-Nluc reporter destabilization hit call (MAP2K1; 10 µM): inactive: 0
- kinase-Nluc reporter destabilization hit call (MAP2K2; 10 µM): inactive: 0
- kinase-Nluc reporter destabilization hit call (MAP4K2; 10 µM): inactive: 0

Structure (SMILES): COc1cc2c(cc1OC)-c1c(C)c3ccc(OC)c(OC)c3c[n+]1CC2 [Dehydrocorydaline (chloride)]
- kinase-Nluc reporter destabilization hit call (ERN1; 10 µM): inactive: 0
- kinase-Nluc reporter destabilization hit call (FGFR1; 10 µM): inactive: 0
- kinase-Nluc reporter destabilization hit call (FGFR2; 10 µM): inactive: 0
- kinase-Nluc reporter destabilization hit call (FGFR3; 10 µM): inactive: 0
- kinase-Nluc reporter destabilization hit call (FGR; 10 µM): inactive: 0
- kinase-Nluc reporter destabilization hit call (FLT3; 10 µM): inactive: 0
- kinase-Nluc reporter destabilization hit call (FYN; 10 µM): inactive: 0
- kinase-Nluc reporter destabilization hit call (GSK3A; 10 µM): inactive: 0
- kinase-Nluc reporter destabilization hit call (HER2; 10 µM): inactive: 0
- kinase-Nluc reporter destabilization hit call (INSRR; 10 µM): inactive: 0
- kinase-Nluc reporter destabilization hit call (IRAK3; 10 µM): inactive: 0
- kinase-Nluc reporter destabilization hit call (JAK1; 10 µM): inactive: 0
- kinase-Nluc reporter destabilization hit call (LCK; 10 µM): inactive: 0
- kinase-Nluc reporter destabilization hit call (LIMK1; 10 µM): inactive: 0
- kinase-Nluc reporter destabilization hit call (LIMK2; 10 µM): inactive: 0
- kinase-Nluc reporter destabilization hit call (LMTK2; 10 µM): inactive: 0
- kinase-Nluc reporter destabilization hit call (LYN; 10 µM): inactive: 0
- kinase-Nluc reporter destabilization hit call (MAP2K1; 10 µM): inactive: 0
- kinase-Nluc reporter destabilization hit call (MAP2K2; 10 µM): inactive: 0
- kinase-Nluc reporter destabilization hit call (MAP4K2; 10 µM): inactive: 0

Structure (SMILES): C=CC(=O)Nc1cc(Nc2nccc(-c3cn(C)c4ccccc34)n2)c(OC)cc1N(C)CCN(C)C [Osimertinib]
- kinase-Nluc reporter destabilization hit call (ERN1; 2.5 µM): inactive: 0
- kinase-Nluc reporter destabilization hit call (FGFR1; 2.5 µM): inactive: 0
- kinase-Nluc reporter destabilization hit call (FGFR2; 2.5 µM): inactive: 0
- kinase-Nluc reporter destabilization hit call (FGFR3; 2.5 µM): inactive: 0
- kinase-Nluc reporter destabilization hit call (FGR; 2.5 µM): inactive: 0
- kinase-Nluc reporter destabilization hit call (FLT3; 2.5 µM): inactive: 0
- kinase-Nluc reporter destabilization hit call (FYN; 2.5 µM): inactive: 0
- kinase-Nluc reporter destabilization hit call (GSK3A; 2.5 µM): inactive: 0
- kinase-Nluc reporter destabilization hit call (HER2; 2.5 µM): inactive: 0
- kinase-Nluc reporter destabilization hit call (INSRR; 2.5 µM): inactive: 0
- kinase-Nluc reporter destabilization hit call (IRAK3; 2.5 µM): inactive: 0
- kinase-Nluc reporter destabilization hit call (JAK1; 2.5 µM): inactive: 0
- kinase-Nluc reporter destabilization hit call (LCK; 2.5 µM): inactive: 0
- kinase-Nluc reporter destabilization hit call (LIMK1; 2.5 µM): inactive: 0
- kinase-Nluc reporter destabilization hit call (LIMK2; 2.5 µM): inactive: 0
- kinase-Nluc reporter destabilization hit call (LMTK2; 2.5 µM): inactive: 0
- kinase-Nluc reporter destabilization hit call (LYN; 2.5 µM): inactive: 0
- kinase-Nluc reporter destabilization hit call (MAP2K1; 2.5 µM): inactive: 0
- kinase-Nluc reporter destabilization hit call (MAP2K2; 2.5 µM): inactive: 0
- kinase-Nluc reporter destabilization hit call (MAP4K2; 2.5 µM): inactive: 0
